Structures can show the parent of a compound that is named as a salt. The list shows a part of the results. The calls rarely recur for the same compound in another form.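 Kinases, fused to nanoluciferase, were expressed in K562 cells; luminescence was measured every 4 h from 2 to 18 h as percent of control (DMSO = 100%, positive control = 0%). A time point is decreased if signal falls significantly (2 sigma). Hits were called by the authors by a rule that is not shown; the count of time points alone does not decide it.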
How the values were obtained:
Assay in all cases: number of time points (of 5) at which kinase-Nluc abundance scored as decreased, DMSO-normalised (count); higher = more persistent destabilization
Settings in all cases: K562; 2-18 h
PRKCA = PRKCA (UniProt P17252)
PTK2 = PTK2 (UniProt Q05397)
PTK2B = PTK2B (UniProt Q14289)
RAF1 = RAF1 (UniProt P04049)
[1] = target: RAF1_S257L (clone: RAF1_mut) (UniProt P04049)
RET = RET (UniProt P07949)
[2] = target: RET_M918T (clone: RET_mut) (UniProt P07949)
RIOK1 = RIOK1 (UniProt Q9BRS2)
RIPK1 = RIPK1 (UniProt Q13546)
RIPK2 = RIPK2 (UniProt O43353)

Protein sequences, listed by entry. Tags and fused reporters are not part of them. Lines headed by an entry give the natural chain unless they say otherwise; changes in a name come on top.
UniProt Q05397, whole entry, looked up: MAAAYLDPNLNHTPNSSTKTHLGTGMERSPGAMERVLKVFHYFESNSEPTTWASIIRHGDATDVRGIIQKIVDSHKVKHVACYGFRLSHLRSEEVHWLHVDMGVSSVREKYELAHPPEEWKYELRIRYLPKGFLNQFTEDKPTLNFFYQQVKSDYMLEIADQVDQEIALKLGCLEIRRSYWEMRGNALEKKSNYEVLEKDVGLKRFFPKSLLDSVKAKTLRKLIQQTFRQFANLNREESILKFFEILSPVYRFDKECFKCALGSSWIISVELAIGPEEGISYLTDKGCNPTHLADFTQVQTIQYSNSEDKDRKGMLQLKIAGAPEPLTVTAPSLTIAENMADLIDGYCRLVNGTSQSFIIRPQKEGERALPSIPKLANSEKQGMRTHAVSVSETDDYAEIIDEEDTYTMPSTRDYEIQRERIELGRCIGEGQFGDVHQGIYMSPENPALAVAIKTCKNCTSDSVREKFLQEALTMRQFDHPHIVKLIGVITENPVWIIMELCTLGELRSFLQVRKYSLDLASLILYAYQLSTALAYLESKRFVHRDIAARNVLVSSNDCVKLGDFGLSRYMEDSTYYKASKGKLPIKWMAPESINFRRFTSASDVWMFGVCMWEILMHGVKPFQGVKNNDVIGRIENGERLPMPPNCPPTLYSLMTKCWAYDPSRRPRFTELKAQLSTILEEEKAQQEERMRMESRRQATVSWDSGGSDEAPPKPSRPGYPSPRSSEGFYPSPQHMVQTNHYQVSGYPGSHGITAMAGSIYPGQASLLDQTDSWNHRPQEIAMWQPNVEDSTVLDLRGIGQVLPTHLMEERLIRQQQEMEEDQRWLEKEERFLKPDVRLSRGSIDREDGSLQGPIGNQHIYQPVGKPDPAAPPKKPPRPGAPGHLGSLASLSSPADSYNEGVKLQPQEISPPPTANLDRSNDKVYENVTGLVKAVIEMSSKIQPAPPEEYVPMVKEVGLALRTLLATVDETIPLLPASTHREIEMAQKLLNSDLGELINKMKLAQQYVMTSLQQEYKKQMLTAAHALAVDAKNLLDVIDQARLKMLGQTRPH
UniProt Q14289, whole entry, looked up: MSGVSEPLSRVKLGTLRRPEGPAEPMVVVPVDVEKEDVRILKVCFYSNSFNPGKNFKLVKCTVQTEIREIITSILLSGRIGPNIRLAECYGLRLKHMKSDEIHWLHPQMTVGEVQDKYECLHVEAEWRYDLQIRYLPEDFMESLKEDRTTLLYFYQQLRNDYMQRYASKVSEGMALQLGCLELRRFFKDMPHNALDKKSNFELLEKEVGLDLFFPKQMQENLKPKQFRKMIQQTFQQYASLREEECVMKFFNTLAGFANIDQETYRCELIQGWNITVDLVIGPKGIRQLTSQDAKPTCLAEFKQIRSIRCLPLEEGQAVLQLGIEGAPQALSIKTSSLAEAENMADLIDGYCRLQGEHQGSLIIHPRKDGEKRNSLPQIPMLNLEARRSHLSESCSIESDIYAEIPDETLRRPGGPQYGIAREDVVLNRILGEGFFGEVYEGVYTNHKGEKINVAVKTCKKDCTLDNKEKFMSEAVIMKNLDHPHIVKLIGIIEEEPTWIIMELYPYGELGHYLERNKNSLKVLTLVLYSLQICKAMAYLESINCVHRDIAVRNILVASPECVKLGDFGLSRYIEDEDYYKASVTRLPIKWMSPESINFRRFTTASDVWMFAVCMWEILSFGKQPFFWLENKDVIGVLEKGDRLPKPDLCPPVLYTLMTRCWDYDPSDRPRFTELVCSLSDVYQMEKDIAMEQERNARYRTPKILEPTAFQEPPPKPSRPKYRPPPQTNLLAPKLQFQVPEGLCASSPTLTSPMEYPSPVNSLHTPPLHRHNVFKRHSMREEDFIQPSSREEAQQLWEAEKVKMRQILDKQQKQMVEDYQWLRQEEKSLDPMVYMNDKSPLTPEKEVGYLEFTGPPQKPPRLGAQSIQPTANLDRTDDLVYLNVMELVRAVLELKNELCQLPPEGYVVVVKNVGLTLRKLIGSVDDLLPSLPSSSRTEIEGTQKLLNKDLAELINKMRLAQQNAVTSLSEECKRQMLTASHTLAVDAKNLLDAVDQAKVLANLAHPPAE
UniProt P07949, whole entry, looked up: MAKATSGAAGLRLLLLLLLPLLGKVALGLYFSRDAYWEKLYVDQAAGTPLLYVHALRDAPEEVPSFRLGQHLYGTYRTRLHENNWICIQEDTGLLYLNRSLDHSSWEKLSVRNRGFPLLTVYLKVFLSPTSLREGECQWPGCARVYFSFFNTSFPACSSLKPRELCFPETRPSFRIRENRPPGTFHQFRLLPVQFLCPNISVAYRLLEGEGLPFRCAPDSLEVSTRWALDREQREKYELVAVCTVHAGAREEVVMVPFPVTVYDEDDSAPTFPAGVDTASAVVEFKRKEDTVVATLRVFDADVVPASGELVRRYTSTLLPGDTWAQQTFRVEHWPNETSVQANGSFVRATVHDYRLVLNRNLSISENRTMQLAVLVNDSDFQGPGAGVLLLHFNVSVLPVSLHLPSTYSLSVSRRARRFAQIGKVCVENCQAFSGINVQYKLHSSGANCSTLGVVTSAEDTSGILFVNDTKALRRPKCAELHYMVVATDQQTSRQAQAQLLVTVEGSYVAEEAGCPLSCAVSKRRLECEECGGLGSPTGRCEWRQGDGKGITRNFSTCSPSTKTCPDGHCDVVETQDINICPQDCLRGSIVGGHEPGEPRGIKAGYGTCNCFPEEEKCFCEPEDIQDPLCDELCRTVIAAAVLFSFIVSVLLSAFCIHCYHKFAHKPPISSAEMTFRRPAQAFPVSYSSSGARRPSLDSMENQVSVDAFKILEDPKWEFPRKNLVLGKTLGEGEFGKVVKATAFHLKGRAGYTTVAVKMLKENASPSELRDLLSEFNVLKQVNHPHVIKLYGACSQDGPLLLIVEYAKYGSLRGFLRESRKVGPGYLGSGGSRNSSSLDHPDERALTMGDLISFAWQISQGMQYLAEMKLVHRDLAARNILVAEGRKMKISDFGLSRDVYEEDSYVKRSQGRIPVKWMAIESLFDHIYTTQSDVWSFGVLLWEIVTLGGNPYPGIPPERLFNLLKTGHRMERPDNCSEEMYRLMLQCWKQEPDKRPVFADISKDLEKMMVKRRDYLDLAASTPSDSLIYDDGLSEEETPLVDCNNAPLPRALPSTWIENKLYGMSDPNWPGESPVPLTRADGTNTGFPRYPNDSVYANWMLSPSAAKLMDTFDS
UniProt P07949, whole entry M918T, looked up: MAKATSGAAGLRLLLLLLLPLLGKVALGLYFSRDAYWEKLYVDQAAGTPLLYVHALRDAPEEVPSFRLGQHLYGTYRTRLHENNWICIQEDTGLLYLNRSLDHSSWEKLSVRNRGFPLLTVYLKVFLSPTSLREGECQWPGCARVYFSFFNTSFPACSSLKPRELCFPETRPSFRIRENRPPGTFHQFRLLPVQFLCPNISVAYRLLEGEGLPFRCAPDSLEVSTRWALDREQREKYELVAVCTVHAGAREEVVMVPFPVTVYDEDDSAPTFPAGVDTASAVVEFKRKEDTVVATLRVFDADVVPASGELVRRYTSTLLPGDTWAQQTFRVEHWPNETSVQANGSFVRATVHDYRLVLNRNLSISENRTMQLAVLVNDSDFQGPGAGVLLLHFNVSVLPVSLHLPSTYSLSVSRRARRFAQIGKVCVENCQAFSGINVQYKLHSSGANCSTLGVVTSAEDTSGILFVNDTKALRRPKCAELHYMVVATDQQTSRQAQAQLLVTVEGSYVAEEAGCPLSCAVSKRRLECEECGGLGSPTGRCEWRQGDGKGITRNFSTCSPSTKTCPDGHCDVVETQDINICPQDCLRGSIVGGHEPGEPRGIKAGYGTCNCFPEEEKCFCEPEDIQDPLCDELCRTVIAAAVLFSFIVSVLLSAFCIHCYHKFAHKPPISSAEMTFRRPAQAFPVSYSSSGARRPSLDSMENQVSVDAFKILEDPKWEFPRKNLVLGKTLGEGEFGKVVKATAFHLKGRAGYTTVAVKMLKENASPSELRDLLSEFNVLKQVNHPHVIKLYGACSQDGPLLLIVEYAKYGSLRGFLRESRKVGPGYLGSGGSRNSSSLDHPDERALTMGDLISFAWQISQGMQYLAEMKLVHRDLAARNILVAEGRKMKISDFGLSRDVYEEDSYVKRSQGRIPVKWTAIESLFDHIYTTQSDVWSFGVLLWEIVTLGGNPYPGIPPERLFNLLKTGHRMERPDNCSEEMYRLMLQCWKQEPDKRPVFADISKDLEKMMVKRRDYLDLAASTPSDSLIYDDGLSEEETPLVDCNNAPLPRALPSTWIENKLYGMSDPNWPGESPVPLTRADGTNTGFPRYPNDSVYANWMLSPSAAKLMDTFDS
UniProt Q9BRS2: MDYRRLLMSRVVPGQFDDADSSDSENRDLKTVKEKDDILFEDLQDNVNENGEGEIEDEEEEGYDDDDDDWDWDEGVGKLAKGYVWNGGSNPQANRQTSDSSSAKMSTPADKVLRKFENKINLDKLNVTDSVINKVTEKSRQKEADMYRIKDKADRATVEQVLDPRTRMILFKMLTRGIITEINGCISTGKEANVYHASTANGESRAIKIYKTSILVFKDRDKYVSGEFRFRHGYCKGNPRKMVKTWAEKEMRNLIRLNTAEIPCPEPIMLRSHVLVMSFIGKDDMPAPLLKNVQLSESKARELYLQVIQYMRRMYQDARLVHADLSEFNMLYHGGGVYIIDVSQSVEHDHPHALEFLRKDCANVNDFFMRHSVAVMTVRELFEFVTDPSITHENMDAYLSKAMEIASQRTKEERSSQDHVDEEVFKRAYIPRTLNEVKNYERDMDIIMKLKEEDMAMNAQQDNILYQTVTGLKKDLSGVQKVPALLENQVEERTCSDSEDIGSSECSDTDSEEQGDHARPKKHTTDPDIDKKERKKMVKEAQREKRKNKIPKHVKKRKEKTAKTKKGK
UniProt Q13546: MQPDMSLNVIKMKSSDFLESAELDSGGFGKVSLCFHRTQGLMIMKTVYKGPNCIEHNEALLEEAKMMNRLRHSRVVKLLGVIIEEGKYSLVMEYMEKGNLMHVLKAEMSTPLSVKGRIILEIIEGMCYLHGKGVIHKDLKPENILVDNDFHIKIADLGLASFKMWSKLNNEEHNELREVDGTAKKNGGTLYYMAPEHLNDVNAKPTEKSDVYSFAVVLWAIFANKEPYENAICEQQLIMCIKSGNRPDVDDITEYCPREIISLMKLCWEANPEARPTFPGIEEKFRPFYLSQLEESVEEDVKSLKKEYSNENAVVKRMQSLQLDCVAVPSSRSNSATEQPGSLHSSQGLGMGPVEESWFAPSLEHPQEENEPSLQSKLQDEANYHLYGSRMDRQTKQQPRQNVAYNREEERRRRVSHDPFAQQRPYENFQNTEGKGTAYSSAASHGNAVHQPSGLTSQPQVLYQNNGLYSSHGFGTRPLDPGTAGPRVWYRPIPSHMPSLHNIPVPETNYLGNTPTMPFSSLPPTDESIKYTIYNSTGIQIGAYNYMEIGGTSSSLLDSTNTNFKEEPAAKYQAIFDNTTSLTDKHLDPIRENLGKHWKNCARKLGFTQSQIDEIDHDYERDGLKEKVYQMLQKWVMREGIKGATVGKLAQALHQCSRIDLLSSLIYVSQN

SMILES | number of time points (PRKCA) | number of time points (PTK2) | number of time points (PTK2B) | number of time points (RAF1) | number of time points [1] | number of time points (RET) | number of time points [2] | number of time points (RIOK1) | number of time points (RIPK1) | number of time points (RIPK2)
Cc1nc(NC(=O)N2CCC[C@H]2C(N)=O)sc1-c1ccnc(C(C)(C)C(F)(F)F)c1 [Alpelisib] (2.5 µM) | 0 | 0 | 0 | 0 | 0 | 0 | 0 | 0 | 0 | 0
Nc1[nH]nc2nnc(-c3c(-c4ccccc4)nn4ccccc34)cc12 (10 µM) | 0 | 0 | 0 | 0 | 0 | 0 | 0 | 0 | 0 | 0
COc1cc2c(cc1OC)[C@@H]1C(=O)c3ccc4c(c3O[C@@H]1CO2)C=CC(C)(C)O4 [Deguelin] (10 µM) | 0 | 0 | 0 | 0 | 0 | 0 | 0 | 0 | 0 | 0
CO[C@]1(C(=O)N[C@@H](C)c2ccc(-n3cc(F)cn3)nc2)CC[C@H](c2nc(C)cc(Nc3cc(C)[nH]n3)n2)CC1 [Pralsetinib] (10 µM) | 0 | 0 | 0 | 0 | 2 | 0 | 0 | 0 | 0 | 0
NC(=O)c1ccccc1Nc1ccnc(Nc2cccc(O)c2)n1 (10 µM) | 0 | 1 | 0 | 3 | 4 | 3 | 1 | 2 | 3 | 1
N#Cc1cc(-c2ccnc(Nc3ccc(N4CCOCC4)cc3)n2)ccc1OC1CCOCC1 (10 µM) | 0 | 3 | 0 | 0 | 0 | 0 | 0 | 0 | 0 | 0
CN(C)C(=O)c1cc2cnc(Nc3ccc(N4CCN(CCCCNC(=O)COc5cccc6c5C(=O)N(C5CCC(=O)NC5=O)C6=O)CC4)cn3)nc2n1C1CCCC1 (centres undefined) (10 µM) | 0 | 0 | 0 | 0 | 0 | 0 | 0 | 0 | 0 | 0
Cc1cncc2cccc(S(=O)(=O)N3CCCNC[C@@H]3C)c12 [H-1152 (dihydrochloride)] (10 µM) | 0 | 0 | 0 | 0 | 0 | 0 | 0 | 0 | 0 | 0
CN1CCC(Nc2nc(Nc3ccc(Oc4ccccc4)cc3)c3c(=O)[nH]cc(Br)c3n2)CC1 (2.5 µM) | 0 | 3 | 0 | 0 | 0 | 0 | 3 | 0 | 0 | 0
Cc1nn(CC(F)(F)F)cc1Nc1ncc(Br)c(NCc2ccc(S(N)(=O)=O)cc2)n1 (10 µM) | 0 | 0 | 0 | 0 | 0 | 0 | 0 | 0 | 0 | 0
Cn1cnc2c(F)c(Nc3ccc(Br)cc3F)c(C(=O)NOCCO)cc21 [Binimetinib] (10 µM) | 0 | 0 | 0 | 0 | 4 | 0 | 0 | 0 | 0 | 0
CCC[C@H](C)Oc1nc(N)c2[nH]c(=O)n(CCCCCN3CCCCC3)c2n1 (10 µM) | 0 | 0 | 0 | 0 | 0 | 0 | 0 | 0 | 0 | 0
COc1ccc(-c2cc(=O)c3c(O)cc(O)cc3o2)cc1-c1c(O)cc(O)c2c(=O)cc(-c3ccc(O)cc3)oc12 [Bilobetin] (2.5 µM) | 0 | 0 | 0 | 0 | 0 | 0 | 0 | 0 | 0 | 0
CC(C)(Oc1ccc(Cl)cc1)C(=O)Nc1ccc(OCc2ccc(C#N)cc2)cc1 [AMPK activator 4] (10 µM) | 0 | 0 | 0 | 0 | 0 | 0 | 0 | 0 | 0 | 0
CN(C)CCOc1cc(-c2cn[nH]c2)ccc1NC(=O)C1COc2ccccc2O1 (centres undefined) (10 µM) | 0 | 0 | 0 | 0 | 0 | 0 | 0 | 0 | 0 | 0
O=C(CCl)c1c[nH]c2ccccc12 (2.5 µM) | 0 | 0 | 0 | 0 | 0 | 0 | 0 | 0 | 0 | 0
CNC(=O)CN1CCC(Oc2cc3c(Nc4cccc(Cl)c4F)ncnc3cc2OC)CC1 [Sapitinib] (10 µM) | 0 | 0 | 0 | 0 | 0 | 0 | 0 | 0 | 0 | 0
CC(C)(C)S(=O)(=O)c1cc2c(Nc3ccc4scnc4c3)ncnc2cc1OCCOP(=O)(O)O (2 µM) | 0 | 0 | 0 | 0 | 0 | 0 | 0 | 0 | 0 | 4
C[C@@H]1CN(Cc2ccc(F)cc2)[C@@H](C)CN1C(=O)c1cc2c(C(=O)C(=O)N(C)C)cn(C)c2cc1Cl [Talmapimod] (10 µM) | 0 | 0 | 0 | 0 | 0 | 0 | 0 | 0 | 0 | 0
O=C(COc1ccc(Cl)cc1)NC1CCC(NC(=O)COc2ccc(Cl)cc2)CC1 (stereo not drawn) [ISRIB (trans-isomer)] (10 µM) | 0 | 0 | 0 | 0 | 0 | 0 | 0 | 0 | 0 | 0
CNCc1cc(Oc2ccc3c(ccn3C(=O)Nc3cc(C(F)(F)F)n(C)n3)c2)ncn1 [Acrizanib] (10 µM) | 0 | 0 | 0 | 0 | 0 | 0 | 0 | 0 | 1 | 0
COc1cc(N2CCC(N3CCN(C)CC3)CC2)ccc1Nc1ncnc(Nc2ccccc2S(=O)(=O)C(C)C)n1 (10 µM) | 0 | 0 | 0 | 0 | 0 | 0 | 0 | 0 | 0 | 0
CCOc1cc(N2CCC(O)CC2)ccc1Nc1ncc2c(n1)N(C1CCCC1)CCC(=O)N2C (2.5 µM) | 0 | 0 | 0 | 0 | 0 | 0 | 0 | 0 | 0 | 0

A few values from the list.
number of time points (RIPK1), `COc1cc(N2CCC(N3CCN(C)CC3)CC2)ccc1Nc1ncnc(Nc2ccccc2S(=O)(=O)C(C)C)n1` (10 µM) is entered as 0
number of time points [1], `CO[C@]1(C(=O)N[C@@H](C)c2ccc(-n3cc(F)cn3)nc2)CC[C@H](c2nc(C)cc(Nc3cc(C)[nH]n3)n2)CC1` [Pralsetinib] (10 µM) is entered as 2
number of time points (RAF1), `Cn1cnc2c(F)c(Nc3ccc(Br)cc3F)c(C(=O)NOCCO)cc21` [Binimetinib] (10 µM) is entered as 0
number of time points [1], `CN(C)C(=O)c1cc2cnc(Nc3ccc(N4CCN(CCCCNC(=O)COc5cccc6c5C(=O)N(C5CCC(=O)NC5=O)C6=O)CC4)cn3)nc2n1C1CCCC1` (centres undefined) (10 µM) is entered as 0

Remaining list, next part:

SMILES | number of time points (PRKCA) | number of time points (PTK2) | number of time points (PTK2B) | number of time points (RAF1) | number of time points [1] | number of time points (RET) | number of time points [2] | number of time points (RIOK1) | number of time points (RIPK1) | number of time points (RIPK2)
O=C(Nc1ccccc1C(=O)NC1CCCCNC1=O)c1cc2ccccc2s1 (centres undefined) (10 µM) | 0 | 0 | 0 | 0 | 0 | 0 | 0 | 0 | 0 | 0
O=C(C#Cc1ccccc1)c1cccc([N+](=O)[O-])c1 (10 µM) | 0 | 0 | 0 | 0 | 0 | 0 | 0 | 0 | 0 | 0
O=C(Nc1ccc(F)cc1F)C(NC(=S)Nc1cc(C(F)(F)F)cc(C(F)(F)F)c1)c1ccccc1 (racemic) (2.5 µM) | 0 | 0 | 0 | 0 | 0 | 0 | 0 | 0 | 0 | 0
N#C/C(=C/c1ccc(O)c(O)c1)C(=O)N1CCc2ccccc21 [Tyrphostin AG 528] (10 µM) | 0 | 0 | 0 | 0 | 0 | 0 | 0 | 0 | 0 | 0
NC(=O)c1cnc(N[C@@H]2CCCC[C@@H]2N)nc1Nc1cccc(-n2nccn2)c1 (2.5 µM) | 0 | 0 | 0 | 0 | 0 | 0 | 0 | 0 | 0 | 0
CCCCNc1ncc(C(=O)NCc2ccc(-n3ccnc3)cc2)c(NC2CCC(O)CC2)n1 (centres undefined) (10 µM) | 0 | 0 | 0 | 0 | 0 | 0 | 0 | 0 | 0 | 0
O=c1c(O)c(-c2ccc(O)c(O)c2)oc2cc(O)c(O)c(O)c12 [Quercetagetin] (10 µM) | 0 | 0 | 0 | 0 | 0 | 0 | 0 | 0 | 0 | 0
O=C(NCc1ccn[nH]1)c1cc([C@@H]2CCNC[C@H]2COc2ccc3c(c2)OCO3)ccc1F [GRK2-IN-1 (hydrochloride)] (10 µM) | 0 | 0 | 0 | 0 | 0 | 0 | 0 | 0 | 0 | 0
Oc1ccc(-c2cnc3ccc(NCc4ccco4)nn23)cc1 [IRAK inhibitor 2] (2.5 µM) | 0 | 0 | 0 | 0 | 0 | 0 | 0 | 0 | 0 | 4
Nc1ccc(Sc2nc3ccccc3s2)c(Cl)c1 [KRAS inhibitor-9] (10 µM) | 0 | 0 | 0 | 0 | 0 | 0 | 0 | 0 | 0 | 0
Cc1ncc(-c2cc(F)c(O)c(F)c2)cc1-c1cc(F)c(O)c(F)c1 (10 µM) | 0 | 0 | 0 | 0 | 0 | 0 | 0 | 0 | 0 | 0
COc1ccc(CN2CCC(c3ccc4nc(C(=O)N5CCN(Cc6ccc(C(F)(F)F)cc6)CC5)[nH]c4c3)CC2)cn1 (2.5 µM) | 0 | 0 | 0 | 0 | 2 | 0 | 1 | 0 | 0 | 0
COCCNc1cc(NC(=O)N2CCCc3cc(CN4CCOCC4=O)c(C=O)nc32)ncc1C#N (10 µM) | 0 | 0 | 0 | 0 | 0 | 0 | 0 | 0 | 0 | 0
N#CC(=C(/N)Sc1ccccc1N)/C(C#N)=C(\N)Sc1ccccc1N (10 µM) | 0 | 0 | 0 | 0 | 0 | 0 | 0 | 0 | 0 | 0
C=CC(=O)N1CCC(c2ccc(C(N)=O)c(-c3ccc(Oc4ccccc4)cc3)n2)CC1 [Orelabrutinib] (2.5 µM) | 0 | 0 | 0 | 0 | 0 | 0 | 0 | 0 | 0 | 0
COc1ccc(Cl)cc1N(CC(=O)Nc1ccc2c(c1)OCO2)S(=O)(=O)c1ccccc1 (2.5 µM) | 0 | 0 | 0 | 0 | 0 | 0 | 0 | 0 | 0 | 0
Cc1cccc(-c2nn3c(c2-c2ccnc4ccc(C(N)=O)cc24)CCC3)n1 [Galunisertib] (10 µM) | 0 | 0 | 0 | 0 | 0 | 0 | 0 | 0 | 0 | 0
Cc1nc2c(NCc3cccc(S(C)(=O)=O)c3)nccn2c1-c1ccc(O)c(F)c1 (10 µM) | 1 | 0 | 0 | 0 | 0 | 0 | 0 | 0 | 0 | 0
Nc1ccc(-c2cccc(C(=O)Nc3cnc4nc(N5CCOCC5)oc4c3)n2)cn1 (10 µM) | 0 | 3 | 0 | 0 | 0 | 0 | 0 | 0 | 0 | 0
CN(C[C@@H]1COCCO1)S(=O)(=O)Nc1ccc2ccc3ncc(-c4cnn(C)c4)cc3c(=O)c2c1 (2.5 µM) | 0 | 0 | 0 | 0 | 0 | – | – | 0 | 0 | 0
O=[N+]([O-])c1ccc(-c2nc(-c3ccc(F)cc3)c(-c3ccncc3)[nH]2)cc1 (10 µM) | 0 | – | 0 | 0 | 0 | 0 | 0 | 0 | 0 | 0
C[C@@H](NC(=O)c1ncnc(N)c1Cl)c1ncc(C(=O)Nc2cc(C(F)(F)F)c(Cl)cn2)s1 (2.5 µM) | 0 | 2 | 0 | – | – | 2 | 0 | 3 | 3 | 4
Fc1ccc(Cl)cc1-c1nc(Nc2ccncc2)c2nccnc2n1 (10 µM) | 0 | 0 | – | 0 | 0 | 0 | 0 | 0 | 0 | 0

Reference: the supplement of paper PMC12823440, “Inhibitors supercharge kinase turnover through native proteolytic circuits” (Nature, 2025)
